Source: patent US20100173972A1, “METHODS AND USES RELATED TO RHBDL4” (MEDICAL RESEARCH COUNCIL, priority 2007, published 2010)
At least one compound was matched to its structure with a doubt left.

Assays:
[1] = system: HB-EGF shedding, COS-7 cells; assay: HB-EGF secretion in COS-7 cells overexpressing the bombesin receptor; format: cell-based, green monkey; settings: N-terminal FLAG3-tagged HB-EGF
[2] = system: gastrin-releasing peptide receptor; format: cell-based, mouse; settings: COS-7 cells, endogenous receptor; bombesin 100 nM

SMILES: CSCC[C@H](NC(=O)[C@H](CC(C)C)NC(=O)[C@H](Cc1cnc[nH]1)NC(=O)CNC(=O)[C@@H](NC(=O)[C@H](C)NC(=O)[C@H](Cc1c[nH]c2ccccc12)NC(=O)[C@H](CCC(N)=O)NC(=O)[C@H](CC(N)=O)NC(=O)CNC(=O)[C@H](CC(C)C)NC(=O)[C@H](CCCN=C(N)N)NC(=O)[C@H](CCC(N)=O)NC(=O)[C@@H]1CCC(=O)N1)C(C)C)C(N)=O [bombesin]
- HB-EGF secretion / release [1]: stimulated
- HB-EGF secretion / release ([1]; listed as Bombesin): enhanced
- BB94-insensitive release of the 37 kDa form of TGFalpha [2]: enhanced
